Test results from patent US20080299131A1, “Anti-Viral Compositions” (priority 2004, published 2008).
Some entries share one result that the patent states for a list of compounds.

System: EEV
Type: cell-based, Vaccinia virus strain WR

Substance | concentration of PAs that neutralized 50% of virus infectivity
dextran sulphate [DS] | < 1 µg/mL
heparin [HP] | < 1 µg/mL
